Results from US6866845B1, “Compositions and methods for the treatment of sepsis” (The Regents of the University of Michigan, priority 1999, dated 2005).
These are yes or no findings as the source states them, for the method shown. Some results given as binding are weak or reduced against the parent protein; the word gives no strength.

By UniProt entry, the sequences of proteins in these tests, tags left out.
UniProt P21730: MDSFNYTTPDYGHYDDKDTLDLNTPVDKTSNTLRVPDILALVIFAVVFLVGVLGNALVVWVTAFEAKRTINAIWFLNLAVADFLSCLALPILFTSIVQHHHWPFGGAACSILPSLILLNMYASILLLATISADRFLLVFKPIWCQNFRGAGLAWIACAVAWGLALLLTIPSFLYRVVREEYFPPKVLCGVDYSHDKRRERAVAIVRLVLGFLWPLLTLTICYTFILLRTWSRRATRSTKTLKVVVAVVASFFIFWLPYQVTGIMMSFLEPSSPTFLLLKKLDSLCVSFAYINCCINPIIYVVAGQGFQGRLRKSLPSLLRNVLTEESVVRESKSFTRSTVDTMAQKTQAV

Molecular target: human peripheral blood neutrophils (surface sites that bind human C5a peptide) (human) (UniProt P21730)
Assay: competition with 125I-hC5a on human neutrophils, peptide:hC5a 10:1

binding	Binder
binds	MLQKKIEEIAAKYKHSVVKK [peptide A (residues 1-20 of human C5a peptide)]
binds	CCYDGASVNNDETCEQRAAR [peptide M (residues 21-40 of human C5a peptide)]
